Values from PubChem BioAssay AID504764 (Drosophila RNAi Screening Center, 2011).
The deposit covers about 22,000 reagents; shown is an unselected part of those with a known target gene and a result. Of all reagents, 403 (1.9%) are marked active. 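Unnormalised raw counts per well; ratio z-scores behind the hit calls and whether each hit raises or lowers signal are not deposited.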 No sequences are given here. The record does not give: the amount of reagent.

Test: 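Genes whose knock-down alters Notch-dependent transcription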 (primary screen)
System: Drosophila Kc167 cells
Reagent: long dsRNA against Drosophila genes
Time to read-out: about 5 days (4 days dsRNA, then 24 h after transfection)
Conditions: transfection of constitutively active membrane-tethered Notch lacking the extracellular domain, read 24 h later
Measured: 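Light from a Notch-responsive E(spl)m3 luciferase reporter under active Notch, with control-promoter and no-Notch reporter wells to normalise; raw counts from paired wells a and b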
Scale: induced reporter light, run 1, well a and induced reporter light, run 1, well b: higher = more light from the Notch target reporter with active Notch; control promoter light, run 1, well a and control promoter light, run 1, well b: higher = more light from the viral control promoter (cell number, transfection, viability); uninduced reporter light, run 1, well a: higher = more light from the Notch target reporter without active Notch
Rule for the call: 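Wells with low control signal or poorly matching duplicates excluded; duplicates averaged; per source plate, z beyond ±2 for induced/control log2 ratio or beyond ±1.8 for induced/uninduced marks a hit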
Calls: active = modifier hit (raised or lowered Notch signal); inactive = not a hit

no.	Target gene	amplicon	induced reporter light, run 1, well a	induced reporter light, run 1, well b	control promoter light, run 1, well a	control promoter light, run 1, well b	uninduced reporter light, run 1, well a	Call
1	CG31221	DRSC14335	1.43e5	1.08e5	1.61e5	1.51e5	8438	inactive
2	CG31221	DRSC16217	1.86e5	1.63e5	2.16e5	1.86e5	11675	inactive
3	Ncoa6	DRSC02353	8290	8178	8790	9960	2575	inactive
4	CG17122	DRSC10245	1.43e5	1.15e5	1.37e5	1.35e5	7165	inactive
5	Pyroxd1	DRSC02098	69780	47015	55075	65685	3175	inactive
6	HINT1	DRSC00548	1.49e5	92160	83540	68270	12225	inactive
7	Best2	DRSC09712	2.56e5	2.43e5	2.36e5	2.20e5	11985	inactive
8	CG1317	DRSC08305	1.01e5	82195	1.75e5	1.60e5	6730	inactive
9	Atg17	DRSC12221	1.11e5	84820	68605	79130	6065	inactive
10	Eig71Eg	DRSC11154	1.69e5	1.23e5	1.67e5	1.43e5	5900	inactive
11	mal	DRSC20581	1.13e5	95845	1.00e5	70110	8750	inactive
12	MrgBP	DRSC06417	1.66e5	1.63e5	2.50e5	2.29e5	13860	inactive
13	CG18528	DRSC15340	1.84e5	1.63e5	2.09e5	1.93e5	15230	inactive

Single entries from the entries so far.
Result for CG18528 [DRSC15340] in “induced reporter light, run 1, well b”: 1.63e5
Eig71Eg [DRSC11154], induced reporter light, run 1, well a → 1.69e5

The listing continues.
no.	Target gene	amplicon	induced reporter light, run 1, well a	induced reporter light, run 1, well b	control promoter light, run 1, well a	control promoter light, run 1, well b	uninduced reporter light, run 1, well a	Call
14	cpo	DRSC13265	81025	71085	1.12e5	78390	12165	inactive
15	DAAM	DRSC18479	1.62e5	2.00e5	2.35e5	2.25e5	13585	inactive
16	Sema2a	DRSC07551	1.01e5	84955	1.45e5	1.45e5	6215	inactive
17	CG10973	DRSC09813	93840	1.10e5	91565	47215	9480	inactive
18	phol	DRSC10367	1.04e5	1.22e5	70295	38490	9330	inactive
19	CG7488	DRSC16250	3.22e5	3.39e5	2.82e5	2.83e5	25080	inactive
20	pdgy	DRSC19064	99955	1.10e5	96500	1.08e5	9240	inactive
21	pdgy	DRSC19341	2.67e5	2.32e5	3.06e5	2.25e5	13325	inactive
22	CG9377	DRSC03217	1.98e5	1.90e5	1.52e5	1.80e5	12560	inactive
23	CG32687	DRSC18210	1.54e5	1.36e5	3.04e5	2.32e5	11230	inactive
24	CG32687	DRSC18237	1.38e5	86005	1.85e5	2.08e5	7440	inactive
25	Cpr56F	DRSC07326	1.42e5	1.09e5	1.38e5	1.60e5	8575	inactive
26	imd	DRSC05928	1.17e5	1.05e5	2.01e5	2.21e5	9865	inactive
27	CG17597	DRSC02630	2.48e5	2.07e5	2.18e5	2.26e5	18395	inactive
28	caup	DRSC11334	32615	44270	41465	37510	3350	inactive
29	sl	DRSC20377	1.71e5	1.32e5	2.44e5	2.35e5	11170	inactive
30	zf30C	DRSC03641	2.76e5	3.07e5	2.70e5	2.70e5	22430	inactive
31	Ir94g	DRSC15231	1.66e5	1.53e5	1.88e5	1.67e5	10740	inactive
32	CG3862	DRSC00631	2.29e5	2.23e5	2.33e5	2.50e5	18450	inactive
33	Or94b	DRSC16773	1.63e5	1.86e5	2.34e5	2.31e5	15105	inactive
34	side-V	DRSC04188	2.36e5	2.09e5	2.05e5	1.86e5	16915	inactive
35	side-V	DRSC04189	1.64e5	1.63e5	2.64e5	2.28e5	14595	inactive
36	side-V	DRSC22266						inactive
